The assay deals with Yes-associated protein1, P46937. In words: co-IP; 5637 cells transfected with expression vectors; cell lysates immunoprecipitated with an anti-Flag antibody, Western blot with indicated antibodies; cells treated with miR-497 or miR-195 mimic or inhibitor. The conditions noted are these: remark: other sources report otherwise. (In general: Immunoblotting shows a protein as a band on a membrane.)

No constants are given. Whether binding was seen depends on the method and setting. Binding seen in cells or lysates may run through a third protein. Some binding calls cover weakened binding; strength is not graded here.

B1: SMAD3, P84022 1-425 (protein)
chain: MSSILPFTPPIVKRLLGWKKGEQNGQEEKWCEKAVKSLVKKLKKTGQLDELEKAITTQNVNTKCITIPRSLDGRLQVSHRKGLPHVIYCRLWRWPDLHSHHELRAMELCEFAFNMKKDEVCVNPYHYQRVETPVLPPVLVPRHTEIPAEFPPLDDYSHSIPENTNFPAGIEPQSNIPETPPPGYLSEDGETSDHQMNHSMDAGSPNLSPNPMSPAHNNLDLQPVTYCEPAFWCSISYYELNQRVGETFHASQPSMTVDGFTDPSNSERFCLGLLSNVNRNAAVELTRRHIGRGVRLYYIGGEVFAECLSDSAIFVQSPNCNQRYGWHPATVCKIPPGCNLKIFNNQEFAALLAQSVNQGFEAVYQLTRMCTIRMSFVKGWGAEYRRQTVTSTPCWIELHLNGPLQWLDKVLTQMGSPSIRCSSVS
As to B1, the binding result was “binds”.

For the origin of these results see publication PMC7755977.
